# These are yes or no findings as the source states them, for the method shown. Binding calls can cover weak binding; strength is not graded here.
# Amino acid sequences for entries named in this document (tags omitted). A change or cut given only in a name is not applied to a line headed by its entry.
# UniProt Q6ASS9: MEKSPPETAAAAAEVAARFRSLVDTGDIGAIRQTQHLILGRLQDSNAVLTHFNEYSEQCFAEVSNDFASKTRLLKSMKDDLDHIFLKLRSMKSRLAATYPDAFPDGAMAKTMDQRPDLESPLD
# UniProt Q0J0G7: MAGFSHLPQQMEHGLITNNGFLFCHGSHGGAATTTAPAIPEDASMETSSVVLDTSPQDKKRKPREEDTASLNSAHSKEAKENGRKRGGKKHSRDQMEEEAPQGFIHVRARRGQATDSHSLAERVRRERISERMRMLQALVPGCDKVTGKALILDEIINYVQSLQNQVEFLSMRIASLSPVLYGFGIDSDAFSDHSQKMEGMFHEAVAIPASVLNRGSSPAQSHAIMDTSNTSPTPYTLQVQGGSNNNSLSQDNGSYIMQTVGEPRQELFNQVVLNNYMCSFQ
# UniProt Q6Z2G7: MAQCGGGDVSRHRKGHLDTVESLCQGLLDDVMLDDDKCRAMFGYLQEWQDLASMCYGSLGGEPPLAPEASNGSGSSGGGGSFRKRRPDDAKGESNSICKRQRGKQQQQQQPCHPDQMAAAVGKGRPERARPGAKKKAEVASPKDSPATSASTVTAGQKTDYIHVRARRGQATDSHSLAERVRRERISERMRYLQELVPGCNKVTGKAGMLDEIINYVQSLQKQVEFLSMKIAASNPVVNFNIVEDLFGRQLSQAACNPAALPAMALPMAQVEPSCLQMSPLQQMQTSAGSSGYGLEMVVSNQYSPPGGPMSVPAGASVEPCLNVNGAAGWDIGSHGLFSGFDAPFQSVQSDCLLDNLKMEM
# UniProt A3BV95: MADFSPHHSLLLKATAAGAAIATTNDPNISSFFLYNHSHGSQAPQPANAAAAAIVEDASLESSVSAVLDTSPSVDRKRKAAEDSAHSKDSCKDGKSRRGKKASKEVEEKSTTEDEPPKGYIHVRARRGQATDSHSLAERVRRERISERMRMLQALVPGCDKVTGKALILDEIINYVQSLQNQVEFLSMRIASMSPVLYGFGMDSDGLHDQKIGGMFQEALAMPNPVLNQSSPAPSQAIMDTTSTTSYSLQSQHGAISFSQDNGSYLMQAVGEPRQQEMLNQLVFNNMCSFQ
# Legend:
# LO9-177 (rice) = LO9-177 (rice) (UniProt Q6ASS9); assay: two-hybrid; full-length proteins fused to GAL4 BD/AD (pBD-/pAD-GAL4 vectors, Stratagene) in yeast cells; X-gal filter assays
# [1] = target: OsBUL1 COMPLEX1 (OsBC1) (rice) (UniProt Q0J0G7); assay: as above
substance,measurement,setting,value
OsBC-Like2 (OsBCL2) (from UniProt Q6Z2G7),binding,LO9-177 (rice),no binding
same,binding,[1],no binding
OsBC-Like1 (OsBCL1) (from UniProt A3BV95),binding,LO9-177 (rice),binds
same,binding,[1],binds
